Data taken from article PMC5636874.
These are yes or no findings as the source states them, for the method shown. For some assays here: In cells and extracts the contact can be indirect. Some entries that bind do so weakly or less than the wild type.

By UniProt entry, the sequences of proteins in these tests, tags left out.
UniProt O14733: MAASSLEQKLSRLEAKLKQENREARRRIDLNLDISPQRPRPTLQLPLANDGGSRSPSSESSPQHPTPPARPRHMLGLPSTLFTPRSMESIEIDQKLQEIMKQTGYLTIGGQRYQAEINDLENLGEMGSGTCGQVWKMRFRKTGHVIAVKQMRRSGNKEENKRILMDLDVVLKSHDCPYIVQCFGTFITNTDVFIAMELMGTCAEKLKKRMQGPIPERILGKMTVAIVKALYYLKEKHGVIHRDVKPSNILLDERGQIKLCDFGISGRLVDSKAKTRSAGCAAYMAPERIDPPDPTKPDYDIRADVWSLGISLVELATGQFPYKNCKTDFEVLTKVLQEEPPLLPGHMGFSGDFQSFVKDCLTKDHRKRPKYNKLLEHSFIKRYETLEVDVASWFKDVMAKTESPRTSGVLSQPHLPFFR
UniProt Q16584: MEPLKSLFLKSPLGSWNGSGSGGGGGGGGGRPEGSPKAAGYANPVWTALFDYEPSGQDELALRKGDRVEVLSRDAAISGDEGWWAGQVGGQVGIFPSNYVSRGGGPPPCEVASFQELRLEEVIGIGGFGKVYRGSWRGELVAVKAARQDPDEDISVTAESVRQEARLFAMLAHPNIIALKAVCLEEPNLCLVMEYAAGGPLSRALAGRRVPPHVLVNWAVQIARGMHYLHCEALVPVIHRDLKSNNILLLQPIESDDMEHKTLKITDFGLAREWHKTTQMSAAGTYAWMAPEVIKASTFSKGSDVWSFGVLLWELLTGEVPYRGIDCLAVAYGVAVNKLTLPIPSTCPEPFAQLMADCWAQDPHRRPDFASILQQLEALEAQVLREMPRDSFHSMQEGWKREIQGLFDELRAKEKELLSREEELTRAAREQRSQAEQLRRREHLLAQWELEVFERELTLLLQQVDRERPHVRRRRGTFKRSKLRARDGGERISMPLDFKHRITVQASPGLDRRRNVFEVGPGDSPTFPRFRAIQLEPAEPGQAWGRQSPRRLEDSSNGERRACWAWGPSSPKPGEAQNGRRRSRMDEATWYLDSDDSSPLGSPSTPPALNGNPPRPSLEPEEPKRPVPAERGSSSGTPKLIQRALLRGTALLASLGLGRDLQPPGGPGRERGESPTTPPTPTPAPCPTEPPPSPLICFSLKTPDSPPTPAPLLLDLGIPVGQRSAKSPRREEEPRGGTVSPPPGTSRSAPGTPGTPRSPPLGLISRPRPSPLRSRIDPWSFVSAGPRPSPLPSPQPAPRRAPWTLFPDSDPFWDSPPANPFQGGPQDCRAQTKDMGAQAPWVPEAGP

B1: PTPN1 (non-transmembrane protein tyrosine phosphatase 1) (enzyme, UniProt P18031 1-435)
chain: MEMEKEFEQIDKSGSWAAIYQDIRHEASDFPCRVAKLPKNKNRNRYRDVSPFDHSRIKLHQEDNDYINASLIKMEEAQRSYILTQGPLPNTCGHFWEMVWEQKSRGVVMLNRVMEKGSLKCAQYWPQKEEKEMIFEDTNLKLTLISEDIKSYYTVRQLELENLTTQETREILHFHYTTWPDFGVPESPASFLNFLFKVRESGSLSPEHGPVVVHCSAGIGRSGTFCLADTCLLLMDKRKDPSSVDIKKVLLEMRKFRMGLIQTADQLRFSYLAVIEGAKFIMGDSSVQDQWKELSHEDLEPPPEHIPPPPRPPKRILEPHNGKCREFFPNHQWVKEETQEDKDCPIKEEKGSPLNAAPYGIESMSQDTEVRSRVVGGSLRGAQAASPAKGEPSLPEKDEDHALSYWKPFLVNMCVATVLTAGAYLCYRFLFNSNT
B2: JIP1 scaffold protein (protein, UniProt Q9WVI9 1-707)
chain: MAERESGLGGGAASPPAASPFLGLHIASPPNFRLTHDISLEEFEDEDLSEITDECGISLQCKDTLSLRPPRAGLLSAGSSGSAGSRLQAEMLQMDLIDAAGDTPGAEDDEEEEDDELAAQRPGVGPPKAESNQDPAPRSQGQGPGTGSGDTYRPKRPTTLNLFPQVPRSQDTLNNNSLGKKHSWQDRVSRSSSPLKTGEQTPPHEHICLSDELPPQGSPVPTQDRGTSTDSPCRRSAATQMAPPSGPPATAPGGRGHSHRDRIHYQADVRLEATEEIYLTPVQRPPDPAEPTSTFMPPTESRMSVSSDPDPAAYSVTAGRPHPSISEEDEGFDCLSSPERAEPPGGGWRGSLGEPPPPPRASLSSDTSALSYDSVKYTLVVDEHAQLELVSLRPCFGDYSDESDSATVYDNCASASSPYESAIGEEYEEAPQPRPPTCLSEDSTPDEPDVHFSKKFLNVFMSGRSRSSSAESFGLFSCVINGEEHEQTHRAIFRFVPRHEDELELEVDDPLLVELQAEDYWYEAYNMRTGARGVFPAYYAIEVTKEPEHMAALAKNSDWIDQFRVKFLGSVQVPYHKGNDVLCAAMQKIATTRRLTVHFNPPSSCVLEISVRGVKIGVKADDALEAKGNKCSHFFQLKNISFCGYHPKNNKYFGFITKHPADHRFACHVFVSEDSTKALAESVGRAFQQFYKQFVEYTCPTEDIYLE
B3: PTPN1, bacterially expressed (enzyme, UniProt P18031 1-435)
chain: B1 chain

How the values were obtained:
[1] = molecular target: T1, JIP1 scaffold protein (mouse) (UniProt Q9WVI9); assay: co-IP; immunoprecipitation and immunoblot from 293 T cells, unstimulated and treated with TNFα for the indicated times after serum starvation
T1 sequence: B2 chain

MKK7 (MAPKK) = MKK7 (MAPKK) (UniProt O14733); assay: as above
MLK3 (MAPKKK) = MLK3 (MAPKKK) (UniProt Q16584); assay: as above
[2] = molecular target: T2, JIP1, bacterially expressed (mouse) (UniProt Q9WVI9); assay: pull-down; in vitro binding assay with bacterially expressed purified proteins; prey and bait incubated 2 h, glutathione sepharose 2 h, washed five times with PBS, immunoblot; both purified
T2 sequence: B2 chain

[3] = molecular target: MKK7, bacterially expressed (UniProt O14733); assay: as above
[4] = molecular target: MLK3, bacterially expressed (UniProt Q16584); assay: as above

Row | Binder | binding [1] | binding (MKK7 (MAPKK)) | binding (MLK3 (MAPKKK)) | binding [2] | binding [3] | binding [4]
1 | B1 | binds | binds | binds | – | – | –
2 | B2 | – | binds | binds | – | – | –
3 | B3 | – | – | – | binds | binds | binds
